# Reference: the supplement of paper PMC12823440, “Inhibitors supercharge kinase turnover through native proteolytic circuits” (Nature, 2025)
# The chains behind the UniProt entries cited, without tags or fusion partners. Where a name states a change or a piece, a line headed by the entry shows the natural chain unless it says otherwise.
# UniProt P49840: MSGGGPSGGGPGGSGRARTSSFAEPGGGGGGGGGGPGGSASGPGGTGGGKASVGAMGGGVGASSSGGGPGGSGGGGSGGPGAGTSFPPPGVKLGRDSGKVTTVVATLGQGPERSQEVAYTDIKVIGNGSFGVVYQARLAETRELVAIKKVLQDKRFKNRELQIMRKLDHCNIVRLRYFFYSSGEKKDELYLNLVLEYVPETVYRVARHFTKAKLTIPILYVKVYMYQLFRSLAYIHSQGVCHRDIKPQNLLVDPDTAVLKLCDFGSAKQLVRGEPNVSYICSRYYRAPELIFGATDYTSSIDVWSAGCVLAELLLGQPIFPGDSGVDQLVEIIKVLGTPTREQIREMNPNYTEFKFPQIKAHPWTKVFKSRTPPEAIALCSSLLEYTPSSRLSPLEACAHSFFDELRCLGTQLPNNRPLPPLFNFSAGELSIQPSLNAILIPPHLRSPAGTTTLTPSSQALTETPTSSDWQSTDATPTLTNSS
# UniProt P14616: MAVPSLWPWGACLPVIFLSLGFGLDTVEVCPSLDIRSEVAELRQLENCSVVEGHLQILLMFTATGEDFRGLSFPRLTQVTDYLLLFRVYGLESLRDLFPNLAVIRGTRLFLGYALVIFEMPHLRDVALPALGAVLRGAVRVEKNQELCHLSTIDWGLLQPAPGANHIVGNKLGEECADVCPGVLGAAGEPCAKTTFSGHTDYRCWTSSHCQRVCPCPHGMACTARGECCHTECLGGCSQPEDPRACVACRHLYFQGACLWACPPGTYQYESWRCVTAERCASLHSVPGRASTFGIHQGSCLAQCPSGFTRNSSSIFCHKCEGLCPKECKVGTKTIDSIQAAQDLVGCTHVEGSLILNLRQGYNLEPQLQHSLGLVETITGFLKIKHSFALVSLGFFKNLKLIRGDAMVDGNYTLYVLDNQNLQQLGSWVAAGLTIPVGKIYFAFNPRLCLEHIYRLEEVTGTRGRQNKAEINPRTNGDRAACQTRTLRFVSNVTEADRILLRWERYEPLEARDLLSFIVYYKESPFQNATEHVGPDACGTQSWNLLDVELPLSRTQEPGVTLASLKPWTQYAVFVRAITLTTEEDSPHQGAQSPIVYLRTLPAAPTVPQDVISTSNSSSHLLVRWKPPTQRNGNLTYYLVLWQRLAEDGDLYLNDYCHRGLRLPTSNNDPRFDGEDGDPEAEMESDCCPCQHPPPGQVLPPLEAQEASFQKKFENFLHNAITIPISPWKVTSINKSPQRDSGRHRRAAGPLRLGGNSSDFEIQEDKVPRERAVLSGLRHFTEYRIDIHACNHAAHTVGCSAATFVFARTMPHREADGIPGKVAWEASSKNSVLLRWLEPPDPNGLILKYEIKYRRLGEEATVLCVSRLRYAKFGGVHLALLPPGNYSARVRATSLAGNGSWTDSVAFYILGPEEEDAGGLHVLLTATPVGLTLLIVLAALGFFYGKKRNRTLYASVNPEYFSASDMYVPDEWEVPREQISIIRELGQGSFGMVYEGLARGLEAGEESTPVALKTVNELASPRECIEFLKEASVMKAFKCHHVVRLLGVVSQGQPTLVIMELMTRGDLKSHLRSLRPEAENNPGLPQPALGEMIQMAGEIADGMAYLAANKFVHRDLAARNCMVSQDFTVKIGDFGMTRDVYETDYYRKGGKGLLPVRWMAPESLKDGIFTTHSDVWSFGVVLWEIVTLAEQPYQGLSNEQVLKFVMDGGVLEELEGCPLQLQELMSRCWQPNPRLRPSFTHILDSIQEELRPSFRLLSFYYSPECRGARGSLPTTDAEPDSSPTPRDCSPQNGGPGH
# UniProt P23458: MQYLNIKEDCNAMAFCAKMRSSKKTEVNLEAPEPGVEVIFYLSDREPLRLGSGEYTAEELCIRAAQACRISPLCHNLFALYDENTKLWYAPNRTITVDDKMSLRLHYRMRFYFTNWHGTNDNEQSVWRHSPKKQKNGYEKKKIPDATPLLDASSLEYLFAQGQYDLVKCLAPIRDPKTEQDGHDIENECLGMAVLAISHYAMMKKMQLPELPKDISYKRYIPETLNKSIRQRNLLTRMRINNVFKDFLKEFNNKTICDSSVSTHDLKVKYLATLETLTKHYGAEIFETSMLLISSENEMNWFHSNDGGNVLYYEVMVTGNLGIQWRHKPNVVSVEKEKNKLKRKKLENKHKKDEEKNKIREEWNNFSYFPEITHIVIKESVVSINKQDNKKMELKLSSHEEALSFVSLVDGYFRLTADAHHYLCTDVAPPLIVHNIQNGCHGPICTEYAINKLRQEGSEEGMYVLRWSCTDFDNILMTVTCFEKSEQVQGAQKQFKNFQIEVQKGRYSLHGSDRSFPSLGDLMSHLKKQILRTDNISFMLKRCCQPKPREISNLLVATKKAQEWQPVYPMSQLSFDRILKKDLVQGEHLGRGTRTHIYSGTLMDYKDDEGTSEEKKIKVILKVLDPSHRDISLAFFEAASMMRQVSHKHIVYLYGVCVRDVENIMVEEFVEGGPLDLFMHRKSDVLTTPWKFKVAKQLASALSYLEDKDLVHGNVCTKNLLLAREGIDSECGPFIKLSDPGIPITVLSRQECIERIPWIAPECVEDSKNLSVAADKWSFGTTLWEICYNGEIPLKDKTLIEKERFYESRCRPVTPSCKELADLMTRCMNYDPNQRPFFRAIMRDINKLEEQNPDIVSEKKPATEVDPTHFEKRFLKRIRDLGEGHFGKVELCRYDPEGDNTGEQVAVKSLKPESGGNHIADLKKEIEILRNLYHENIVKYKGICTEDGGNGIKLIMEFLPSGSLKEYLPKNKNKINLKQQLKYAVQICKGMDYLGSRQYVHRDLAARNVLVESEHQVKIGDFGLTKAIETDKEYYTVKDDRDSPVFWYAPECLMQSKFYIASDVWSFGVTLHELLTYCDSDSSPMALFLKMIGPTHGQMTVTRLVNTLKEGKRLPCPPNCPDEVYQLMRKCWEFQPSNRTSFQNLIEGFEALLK
# UniProt P06239: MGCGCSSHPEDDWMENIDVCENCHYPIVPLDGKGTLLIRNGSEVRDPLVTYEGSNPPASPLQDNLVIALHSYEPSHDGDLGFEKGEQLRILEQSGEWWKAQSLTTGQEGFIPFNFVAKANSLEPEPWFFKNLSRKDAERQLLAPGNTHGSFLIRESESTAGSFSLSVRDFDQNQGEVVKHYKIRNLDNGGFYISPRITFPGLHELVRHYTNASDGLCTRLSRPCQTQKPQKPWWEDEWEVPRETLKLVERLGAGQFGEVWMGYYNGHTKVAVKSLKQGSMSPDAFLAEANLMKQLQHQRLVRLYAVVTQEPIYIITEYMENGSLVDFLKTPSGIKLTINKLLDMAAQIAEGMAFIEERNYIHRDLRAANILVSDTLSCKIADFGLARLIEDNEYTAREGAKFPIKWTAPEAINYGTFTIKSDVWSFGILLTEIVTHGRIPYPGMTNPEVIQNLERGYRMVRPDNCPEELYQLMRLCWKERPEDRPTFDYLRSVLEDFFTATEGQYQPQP
# UniProt P53667: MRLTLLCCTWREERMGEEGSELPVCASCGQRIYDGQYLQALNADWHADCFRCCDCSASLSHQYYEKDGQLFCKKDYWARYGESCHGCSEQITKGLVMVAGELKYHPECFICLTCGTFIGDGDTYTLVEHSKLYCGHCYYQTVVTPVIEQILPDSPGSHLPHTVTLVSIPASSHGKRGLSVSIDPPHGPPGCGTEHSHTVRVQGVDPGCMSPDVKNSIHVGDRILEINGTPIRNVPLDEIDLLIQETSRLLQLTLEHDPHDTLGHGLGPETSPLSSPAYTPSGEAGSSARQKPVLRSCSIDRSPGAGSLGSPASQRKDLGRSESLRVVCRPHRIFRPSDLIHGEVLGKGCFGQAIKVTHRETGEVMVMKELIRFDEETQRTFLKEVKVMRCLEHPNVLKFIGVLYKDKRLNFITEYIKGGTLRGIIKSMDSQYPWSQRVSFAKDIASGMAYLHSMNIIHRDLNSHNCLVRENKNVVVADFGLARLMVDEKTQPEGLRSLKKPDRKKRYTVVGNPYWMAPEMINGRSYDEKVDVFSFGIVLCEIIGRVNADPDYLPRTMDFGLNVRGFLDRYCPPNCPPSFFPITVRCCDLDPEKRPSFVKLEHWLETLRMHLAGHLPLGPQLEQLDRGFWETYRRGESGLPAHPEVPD
# UniProt P53671: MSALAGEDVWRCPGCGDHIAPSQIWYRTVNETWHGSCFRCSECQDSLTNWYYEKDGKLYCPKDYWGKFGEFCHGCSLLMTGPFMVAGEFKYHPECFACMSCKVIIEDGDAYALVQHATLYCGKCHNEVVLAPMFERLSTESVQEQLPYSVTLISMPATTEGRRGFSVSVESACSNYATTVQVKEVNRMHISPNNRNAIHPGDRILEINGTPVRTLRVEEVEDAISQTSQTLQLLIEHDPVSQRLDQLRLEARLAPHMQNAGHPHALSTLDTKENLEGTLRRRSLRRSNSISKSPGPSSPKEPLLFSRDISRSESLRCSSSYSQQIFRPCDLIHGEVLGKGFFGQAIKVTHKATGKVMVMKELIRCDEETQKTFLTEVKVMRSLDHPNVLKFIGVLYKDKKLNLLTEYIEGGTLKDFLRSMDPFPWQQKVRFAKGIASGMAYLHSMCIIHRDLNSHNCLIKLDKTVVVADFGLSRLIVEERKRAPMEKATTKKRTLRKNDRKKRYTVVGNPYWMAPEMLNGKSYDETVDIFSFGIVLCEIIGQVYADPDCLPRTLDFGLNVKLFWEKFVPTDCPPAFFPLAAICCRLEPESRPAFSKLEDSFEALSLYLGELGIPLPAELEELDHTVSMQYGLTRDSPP
# UniProt P07948: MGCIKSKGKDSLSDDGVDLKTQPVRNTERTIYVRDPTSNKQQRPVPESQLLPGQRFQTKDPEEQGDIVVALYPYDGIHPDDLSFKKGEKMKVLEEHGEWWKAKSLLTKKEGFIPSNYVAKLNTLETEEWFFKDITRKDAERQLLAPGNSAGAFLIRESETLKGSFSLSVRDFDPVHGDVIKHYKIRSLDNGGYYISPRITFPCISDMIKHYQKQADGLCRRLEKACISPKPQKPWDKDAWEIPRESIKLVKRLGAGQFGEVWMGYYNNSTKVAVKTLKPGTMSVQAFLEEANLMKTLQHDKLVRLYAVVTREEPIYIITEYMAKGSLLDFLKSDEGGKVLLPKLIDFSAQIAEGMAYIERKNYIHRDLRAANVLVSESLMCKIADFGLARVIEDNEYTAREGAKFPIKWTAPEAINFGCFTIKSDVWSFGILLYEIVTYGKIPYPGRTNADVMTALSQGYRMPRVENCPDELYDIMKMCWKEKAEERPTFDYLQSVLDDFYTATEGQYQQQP
# UniProt Q12851: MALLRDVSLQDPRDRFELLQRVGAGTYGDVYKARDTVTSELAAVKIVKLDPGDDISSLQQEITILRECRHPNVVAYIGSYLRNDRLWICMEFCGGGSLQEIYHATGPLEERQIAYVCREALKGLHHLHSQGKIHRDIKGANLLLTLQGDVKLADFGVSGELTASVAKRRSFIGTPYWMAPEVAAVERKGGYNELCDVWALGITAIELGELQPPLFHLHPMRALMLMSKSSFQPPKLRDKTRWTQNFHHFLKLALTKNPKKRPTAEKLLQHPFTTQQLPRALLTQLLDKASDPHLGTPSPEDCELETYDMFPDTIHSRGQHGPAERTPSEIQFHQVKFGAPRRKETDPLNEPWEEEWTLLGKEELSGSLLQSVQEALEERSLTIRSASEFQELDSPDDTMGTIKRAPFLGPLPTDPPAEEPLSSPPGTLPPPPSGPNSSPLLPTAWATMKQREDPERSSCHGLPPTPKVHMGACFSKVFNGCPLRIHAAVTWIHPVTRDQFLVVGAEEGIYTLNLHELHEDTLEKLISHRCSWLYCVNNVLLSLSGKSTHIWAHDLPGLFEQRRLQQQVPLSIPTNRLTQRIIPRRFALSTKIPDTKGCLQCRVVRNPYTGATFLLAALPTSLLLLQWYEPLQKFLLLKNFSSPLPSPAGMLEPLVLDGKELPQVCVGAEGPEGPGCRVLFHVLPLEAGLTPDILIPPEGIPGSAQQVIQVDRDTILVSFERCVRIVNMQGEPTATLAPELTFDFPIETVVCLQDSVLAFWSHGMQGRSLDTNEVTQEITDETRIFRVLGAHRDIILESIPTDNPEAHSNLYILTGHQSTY
# UniProt Q9BUB5: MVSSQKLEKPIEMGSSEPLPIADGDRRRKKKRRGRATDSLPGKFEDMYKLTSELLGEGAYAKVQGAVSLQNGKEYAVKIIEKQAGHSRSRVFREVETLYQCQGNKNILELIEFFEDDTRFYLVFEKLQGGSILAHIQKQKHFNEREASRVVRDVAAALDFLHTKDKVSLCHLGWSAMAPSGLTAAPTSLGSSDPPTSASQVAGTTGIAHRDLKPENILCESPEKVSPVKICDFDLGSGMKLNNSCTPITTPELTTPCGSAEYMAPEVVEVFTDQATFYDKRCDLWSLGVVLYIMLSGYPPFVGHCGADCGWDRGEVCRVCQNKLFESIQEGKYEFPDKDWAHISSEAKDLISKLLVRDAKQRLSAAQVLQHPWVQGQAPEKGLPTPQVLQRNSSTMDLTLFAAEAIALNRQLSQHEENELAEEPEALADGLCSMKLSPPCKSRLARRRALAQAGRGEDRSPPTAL
# The other results are listed elsewhere or left out. The calls rarely recur for the same compound in another form.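 Kinases, fused to nanoluciferase, were expressed in K562 cells; luminescence was measured every 4 h from 2 to 18 h as percent of control (DMSO = 100%, positive control = 0%). A time point is decreased if signal falls significantly (2 sigma). Hits were called by the authors by a rule that is not shown; the count of time points alone does not decide it.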
# Experiments:
# Test in all cases: number of time points (of 5) at which kinase-Nluc abundance scored as decreased, DMSO-normalised (count); higher = more persistent destabilization
# Settings in all cases: K562; 2-18 h
# [1] = molecular target: FLT3 (UniProt P36888)
# [2] = molecular target: FYN (UniProt P06241)
# [3] = molecular target: GSK3A (UniProt P49840)
# [4] = molecular target: HER2 (UniProt P04626)
# [5] = molecular target: INSRR (UniProt P14616)
# [6] = molecular target: IRAK3 (UniProt Q9Y616)
# [7] = molecular target: JAK1 (UniProt P23458)
# [8] = molecular target: LCK (UniProt P06239)
# [9] = molecular target: LIMK1 (UniProt P53667)
# [10] = molecular target: LIMK2 (UniProt P53671)
# [11] = molecular target: LMTK2 (UniProt Q8IWU2)
# [12] = molecular target: LYN (UniProt P07948)
# [13] = molecular target: MAP2K1 (UniProt Q02750)
# [14] = molecular target: MAP2K2 (UniProt P36507)
# [15] = molecular target: MAP4K2 (UniProt Q12851)
# [16] = molecular target: MAPK1 (UniProt P28482)
# [17] = molecular target: MAPK4 (UniProt P31152)
# [18] = molecular target: MAPKAPK2 (UniProt P49137)
# [19] = molecular target: MKNK1 (UniProt Q9BUB5)
# [20] = molecular target: NTRK2 (UniProt Q16620)
SMILES,number of time points [1],number of time points [2],number of time points [3],number of time points [4],number of time points [5],number of time points [6],number of time points [7],number of time points [8],number of time points [9],number of time points [10],number of time points [11],number of time points [12],number of time points [13],number of time points [14],number of time points [15],number of time points [16],number of time points [17],number of time points [18],number of time points [19],number of time points [20]
COC(=O)c1cc2c(OC(C)C)cc(OC(C)C)cc2[nH]1 (2.5 µM),0,0,0,0,0,0,0,0,0,0,0,0,0,0,0,0,0,0,0,0
CN(C)CCCNc1ccn2ncc(-c3ccc4c(c3)OCO4)c2n1 (10 µM),0,0,0,0,0,0,0,0,0,0,0,0,0,0,0,0,0,0,0,0
CC(C)=C/C=C1\O[C@@H]2CC(C)=CC(=O)[C@@H]2[C@]1(C)O [Bisabolangelone] (10 µM),0,0,0,0,0,0,0,0,0,0,0,0,0,0,0,0,0,0,0,0
Oc1ccc2ccccc2c1SSc1c(O)ccc2ccccc12 (10 µM),0,0,0,0,0,0,0,0,0,0,0,0,0,0,0,0,0,0,0,0
CN1CCC(c2ccccc2CC(C)(C)Nc2nc(N3CCOCC3)nc(-n3c(S(C)(=O)=O)nc4ccccc43)n2)CC1 (10 µM),0,0,0,0,0,0,0,0,0,0,0,0,0,0,0,0,0,0,0,0
O=c1ccc2cc(O)c(O)cc2o1 [Esculetin] (10 µM),0,0,0,0,0,0,0,0,0,0,0,0,0,0,0,0,0,0,0,0
COc1ncc2cc(C(=O)Nc3cc(C(=O)NCc4cccc(Cl)c4)ccc3Cl)c(=O)[nH]c2n1 (2.5 µM),0,0,0,0,0,0,0,0,0,0,0,0,0,0,0,0,0,0,0,0
O=C(Nc1nc2cccc(-c3ccc(CN4CCS(=O)(=O)CC4)cc3)n2n1)C1CC1 [Filgotinib] (2.5 µM),0,0,0,0,0,0,0,0,0,0,0,0,0,0,0,0,0,0,0,0
COc1ccc(C2CC(c3ccc(Cl)cc3)=NN2c2nc(-c3ccncc3)cs2)cc1 (stereo not given) [mTOR inhibitor-8] (10 µM),0,0,0,0,0,0,0,0,0,0,0,0,0,0,0,0,0,0,0,0
COc1cc(Nc2nc3ccccc3nc2NS(=O)(=O)c2ccc(NC(=O)c3ccc(C)c(OC)c3)cc2)cc(OC)c1 (10 µM),0,0,0,0,0,0,0,0,0,0,0,0,0,0,0,0,0,0,0,0
C=CC(=O)Nc1cccc(Oc2nc(Nc3ccc(N4CCN(C)CC4)cc3)ncc2Cl)c1 (2.5 µM),0,0,0,4,0,0,0,0,0,0,0,0,0,0,0,0,0,0,0,0
Cc1cc(/C=C2\CC/C(=C\c3cc(C)c(O)c(C)c3)C2=O)cc(C)c1O [Pentagamavunon-1] (2.5 µM),0,0,0,0,0,0,0,0,0,0,0,0,0,0,0,2,0,0,0,0
CNC(=O)Nc1cc(Oc2cncc(C)c2)c(-c2ccc(OCC(C)(C)O)nc2)cn1 (2.5 µM),0,0,0,0,0,0,0,0,0,0,0,0,0,0,0,0,0,0,0,0
CC(=O)Nc1nc(C)c(-c2ccc(Cl)c(S(=O)(=O)NCCO)c2)s1 (10 µM),0,0,0,0,0,0,0,0,2,0,0,0,0,0,0,0,0,0,1,0
NC(=O)c1ccc2nc(-c3ccc(C4(N)CCC4)cc3)c(-c3ccccc3)n2n1 (10 µM),0,0,0,0,0,0,0,0,0,0,0,0,0,0,0,0,0,0,0,0
CS(=O)(=O)N1CCN(Cc2cn3cc(-c4cnc(N)nc4)nc(N4CCOCC4)c3n2)CC1 (10 µM),0,4,0,1,0,0,0,0,3,0,0,0,0,0,0,0,0,0,1,0

# Single values from the results shown:
# O=c1ccc2cc(O)c(O)cc2o1 [Esculetin] (10 µM) | number of time points [13]: 0
# Cc1cc(/C=C2\CC/C(=C\c3cc(C)c(O)c(C)c3)C2=O)cc(C)c1O [Pentagamavunon-1] (2.5 µM) | number of time points [2]: 0

# Following part

SMILES,number of time points [1],number of time points [2],number of time points [3],number of time points [4],number of time points [5],number of time points [6],number of time points [7],number of time points [8],number of time points [9],number of time points [10],number of time points [11],number of time points [12],number of time points [13],number of time points [14],number of time points [15],number of time points [16],number of time points [17],number of time points [18],number of time points [19],number of time points [20]
Cc1nc(NC(=O)N2CCC[C@H]2C(N)=O)sc1-c1csc(C(C)(C)C)n1 (10 µM),0,0,0,0,0,0,0,0,0,0,0,0,0,0,0,0,0,0,0,0
O=C(NCc1cccc(O)c1)c1cc2cc(F)ccc2[nH]1 (10 µM),0,0,0,0,0,0,0,0,0,0,0,0,0,0,0,0,0,0,0,0
NC(=O)c1nc(-c2c(F)cccc2Cl)oc1Nc1ccc(C(=O)N2CCOCC2)cc1 (10 µM),0,0,0,0,0,0,0,0,0,0,0,0,0,0,0,0,0,0,0,0
Cc1ccc(-c2csc(Cn3nc(CC4OCCCO4)c4ccccc4c3=O)n2)cc1 (10 µM),0,0,0,0,0,0,0,0,0,1,0,0,0,0,0,0,0,0,0,0
O=C(O)[C@]1(Cc2cccc(Nc3nccs3)n2)CC[C@@H](Oc2cccc(Cl)c2F)CC1 (2.5 µM),1,0,0,0,2,1,1,0,1,2,0,0,0,0,0,0,1,0,1,1
COc1cc(OC)c(/C=C/S(=O)(=O)Cc2ccc(OC)c(NCC(=O)O)c2)c(OC)c1 [Rigosertib (sodium)] (10 µM),1,3,0,4,2,0,1,0,0,0,1,1,0,0,0,0,0,0,1,0
CNS(=O)(=O)Nc1nccc(Cc2c(C)c3ccc(Oc4ncccn4)cc3oc2=O)c1F (10 µM),3,0,0,0,1,1,0,0,0,0,0,0,0,0,0,0,0,0,0,0
COc1cc(-c2cc(-c3cccc(O)c3)cnc2N)cc(OC)c1OC (2.5 µM),1,0,0,0,2,0,0,0,0,0,0,0,0,0,0,0,0,0,0,0
CNCCOc1ccccc1C(C)(C)Nc1nccn(-c2cc(C(=O)NC3CC3)ccc2C)c1=O [p38α inhibitor 2] (10 µM),0,0,0,0,0,0,0,0,0,0,0,0,0,0,0,0,0,0,0,0
Clc1ccc(Nc2cccc(-c3cn[nH]c3)c2)cc1 (10 µM),0,0,0,0,0,0,0,0,0,0,0,0,0,0,0,0,0,0,0,0
O=C(O)/C=C/c1cc(Br)c(Br)c(Br)c1Br (10 µM),0,0,0,0,0,0,0,0,0,0,0,0,0,0,0,0,0,0,0,0
COc1ccc(C(=O)c2cn(C(C)C)c3ncnc(N)c23)cc1NC(=O)Nc1ccc(Cl)cc1Cl (10 µM),0,0,0,0,0,0,0,0,4,5,0,0,0,0,0,0,0,0,0,0
O=C1c2c(O)cc(O)cc2O[C@H](c2cc(O)c(O)c(O)c2)[C@H]1O [Dihydromyricetin] (10 µM),0,0,0,0,0,0,0,0,0,0,0,0,0,0,0,0,0,0,0,0
CCS(=O)(=O)c1ccc(Oc2cc(O[C@@H](C)CO)cc(C(=O)Nc3ccn(C)n3)c2)cn1 (10 µM),0,0,0,0,0,0,0,0,0,0,0,0,0,0,0,0,0,0,0,0
CN(C)CCCn1cc(C2=C(c3c[nH]c4ccccc34)C(=O)NC2=O)c2ccccc21 [Bisindolylmaleimide I] (2.5 µM),0,0,0,0,0,0,0,0,0,0,0,0,0,0,0,0,0,0,0,0
CS(=O)(=O)N1CCc2c(-c3cnc(N)nc3)nc(N3CCOCC3)nc21 (10 µM),0,0,0,0,0,0,0,0,0,0,0,1,0,0,0,0,0,0,0,0
